Measurements reported in PMC10939015.
These are yes or no findings as the source states them, for the method shown. Binding seen in cells or lysates may run through a third protein.

By UniProt entry, the sequences of proteins in these tests, tags left out.
UniProt P12004: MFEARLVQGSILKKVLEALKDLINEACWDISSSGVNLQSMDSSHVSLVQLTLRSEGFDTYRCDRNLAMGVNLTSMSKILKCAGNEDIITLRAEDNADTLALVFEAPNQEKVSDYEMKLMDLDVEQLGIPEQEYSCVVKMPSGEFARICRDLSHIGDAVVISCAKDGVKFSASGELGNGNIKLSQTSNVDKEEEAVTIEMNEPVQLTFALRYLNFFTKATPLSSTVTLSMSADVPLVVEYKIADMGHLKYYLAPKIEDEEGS
UniProt Q9UNS1: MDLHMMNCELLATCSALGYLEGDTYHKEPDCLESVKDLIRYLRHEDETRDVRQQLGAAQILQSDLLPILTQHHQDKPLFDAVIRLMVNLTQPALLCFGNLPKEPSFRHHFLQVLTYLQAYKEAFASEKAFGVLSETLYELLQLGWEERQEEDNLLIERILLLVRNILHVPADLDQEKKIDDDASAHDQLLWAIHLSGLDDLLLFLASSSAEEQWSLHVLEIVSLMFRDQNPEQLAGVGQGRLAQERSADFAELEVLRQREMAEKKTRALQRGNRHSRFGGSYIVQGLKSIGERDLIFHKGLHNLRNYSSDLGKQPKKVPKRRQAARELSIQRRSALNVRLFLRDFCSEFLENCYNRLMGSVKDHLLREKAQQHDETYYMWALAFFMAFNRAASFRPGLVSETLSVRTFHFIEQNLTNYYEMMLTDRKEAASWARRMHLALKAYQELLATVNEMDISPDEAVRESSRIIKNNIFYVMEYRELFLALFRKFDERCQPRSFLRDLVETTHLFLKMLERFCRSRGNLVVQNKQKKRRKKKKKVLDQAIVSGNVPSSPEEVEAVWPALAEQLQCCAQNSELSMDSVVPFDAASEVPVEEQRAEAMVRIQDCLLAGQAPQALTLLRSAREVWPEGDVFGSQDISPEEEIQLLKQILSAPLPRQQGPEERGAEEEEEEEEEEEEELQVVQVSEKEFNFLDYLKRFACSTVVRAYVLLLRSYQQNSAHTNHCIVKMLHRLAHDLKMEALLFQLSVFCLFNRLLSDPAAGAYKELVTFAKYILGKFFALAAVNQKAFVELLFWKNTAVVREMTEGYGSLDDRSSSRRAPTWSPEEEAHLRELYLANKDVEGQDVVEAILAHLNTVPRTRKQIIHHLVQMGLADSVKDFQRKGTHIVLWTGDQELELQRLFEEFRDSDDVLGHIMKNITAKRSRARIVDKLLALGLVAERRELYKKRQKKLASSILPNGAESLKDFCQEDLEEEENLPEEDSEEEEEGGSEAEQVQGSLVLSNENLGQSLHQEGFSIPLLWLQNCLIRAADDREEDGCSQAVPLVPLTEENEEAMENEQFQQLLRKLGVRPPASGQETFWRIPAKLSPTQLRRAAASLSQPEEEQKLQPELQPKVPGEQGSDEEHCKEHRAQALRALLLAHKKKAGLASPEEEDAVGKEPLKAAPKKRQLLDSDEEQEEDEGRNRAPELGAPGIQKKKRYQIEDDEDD

Legend:
[1] = target: PCNA (human (endogenous in HeLa Kyoto)) (UniProt P12004); test: proximity ligation; Duolink in situ PLA on fixed HeLa Kyoto cells, non-S-phase cells
[2] = target: PCNA (human (endogenous in HeLa Kyoto)) (UniProt P12004); test: condition: only after replication stress (10 mM HU for 1 h or 150 µM APH for 30 min); proximity ligation; Duolink in situ PLA on fixed HeLa Kyoto cells, S-phase cells after replication stress (10 mM HU for 1 h or 150 µM APH for 30 min)

binding [2]: no binding
Substance: Timeless (from UniProt Q9UNS1 1-1208)
binding [1]: no binding (condition: non-S-phase cells)
